Data: publication PMC12431657, “Discovery and mechanistic insights of dibenzoylmethane as a broad spectrum inhibitor of coronavirus” (PLOS Pathogens, 2025)
Counter-ions that a name gives are not always drawn. Like-named read-outs stand apart in the source and are kept apart here. The whole screen tested about 3,300 compounds, of which about 60 (2%) showed an effect of 50% or more. Some of the results follow. Peptide text beside a SMILES is read from it.

System: HCoV-OC43
Set-up: species or system RD; HTS, protection from HCoV-OC43 induced cell death, luminescent cell viability (CellCounting-Lite 2.0), inhibition rate
Details: 24 h post infection, 1 h compound pre-incubation, 10 µM, inhibitor

SMILES	OC43 Inhibition rate [%]	OC43 Inhibition rate (OC43 Inhibition rate, 24 h) [%]
O=c1[nH]cc(CO)c(=O)[nH]1 [5-Hydroxymethyluracil]	1	–
COc1ccc(-c2coc3cc(O[C@@H]4O[C@H](CO)[C@@H](O)[C@H](O)[C@H]4O)ccc3c2=O)cc1O [Calycosin-7-O-β-D-glucoside]	4.3	–
C[C@@H](N)C(=O)O [D-Alanine]	3.8	–
COc1ccc2c(OC)c3ccoc3nc2c1 [Evolitrine]	14.1	–
c1cncc([C@@H]2CCCCN2)c1 [Anabasine]	-0.4	–
COC(=O)[C@]12OC[C@]34[C@H]([C@@H](O)[C@@H]1O)[C@@]1(C)CC(=O)C(O)=C(C)[C@@H]1C[C@H]3OC(=O)[C@H](OC(=O)C=C(C)C)[C@@H]24 [Brusatol]	5.2	–
CC/C=C\C/C=C\C/C=C\CCCCCCCC(=O)OC [Methyl linolenate]	3.9	–
C=C1C[C@@]23CC[C@H]4[C@@](C)(CCC[C@@]4(C)C(=O)O[C@@H]4O[C@H](CO)[C@@H](O)[C@H](O)[C@H]4O)[C@@H]2CC[C@]1(O[C@@H]1O[C@H](CO)[C@@H](O)[C@H](O)[C@H]1O)C3 [Rubusoside]	1	–
CC(C)CCC[C@@H](C)[C@H]1CC[C@H]2[C@@H]3CC[C@H]4CC(=O)CC[C@]4(C)[C@H]3CC[C@]12C [5α-Cholestan-3-one]	0	–
C1=Cc2cccc3cccc1c23 [Acenaphthylene]	-0.4	–
CCCSSC [Methyl propyl disulfide]	1.6	–
O=Cc1cccs1 [2-Thiophenecarboxaldehyde]	2.4	–
Cc1cc(O)cc(C)c1O [2,6-Dimethylhydroquinone]	10.2	–
O=C(O)CCCC[C@@H]1CCSS1 [Lipoic acid]	-2.2	–
O=C(C[C@H]1NCCC[C@@H]1O)Cn1cnc2cc(Br)c(Cl)cc2c1=O (racemic) [Halofuginone]	–	29.2
COc1cc2ccc(=O)oc2cc1O [Scopoletin]	6	–
C=C(C)[C@@H]1CC[C@]2(C)[C@H](CC=C3[C@@H]4[C@@H](C)[C@H](C)CC[C@]4(C)CC[C@]32C)[C@@]1(C)CCC(=O)O [Roburic acid]	29.6	–
CC(C)[C@@H]1NC(=O)CNC(=O)[C@H](C)NC(=O)[C@H](Cc2c[nH]c3ccccc23)NC(=O)[C@H](C)NC1=O [Segetalin B] (cyclo(AGVAW))	-0.5	–
COc1cc(-c2oc3cc(O)cc(O)c3c(=O)c2O[C@@H]2O[C@H](CO[C@@H]3O[C@@H](C)[C@H](O)[C@@H](O)[C@H]3O)[C@@H](O)[C@H](O)[C@H]2O[C@@H]2O[C@@H](C)[C@H](O)[C@@H](O)[C@H]2O)ccc1O [Typhaneoside]	-1.2	–

SMILES	OC43 Inhibition rate [%]	OC43 Inhibition rate (OC43 Inhibition rate, 24 h) [%]
COc1ccc(-c2oc3c(CC=C(C)C)c(O[C@@H]4O[C@H](CO)[C@@H](O)[C@H](O)[C@H]4O)cc(O)c3c(=O)c2O)cc1 [Icariside I]	2.1	–
CC(C)=CCc1c(O)c(CC=C(C)C)c2oc3c(O)cccc3c(=O)c2c1O [8-Deoxygartanin]	17.8	–
C=CCc1ccc(O)c(-c2cc(CC=C)ccc2O)c1 [Magnolol]	-0.6	–
CC(C)c1cccc(=O)c(O)c1 [Hinokitiol]	-1.3	–
CC(C)=C[C@@H]1CO[C@]23C[C@]4(CO2)[C@H](CC[C@@H]2[C@@]5(C)CC[C@H](O[C@@H]6OC[C@H](O)[C@H](O[C@@H]7O[C@H](COS(=O)(=O)O)[C@@H](O)[C@H](O)[C@H]7O)[C@H]6O[C@@H]6O[C@@H](CO)[C@H](O)[C@H]6O)C(C)(C)[C@@H]5CC[C@]24C)[C@H]3[C@@]1(C)O [Bacopaside I]	0.8	–
COc1cc(C[C@@H](CO)[C@H](CO)Cc2ccc(O)c(OC)c2)ccc1O [Secoisolariciresinol]	–	3.4
O=P(O)(O)OC[C@H]1OC(O)(COP(=O)(O)O)[C@@H](O)[C@@H]1O (stereo partly shown) [Fosfructose (trisodium)]	6.3	–
Nc1nc(=O)c2c([nH]1)NC[C@H](CNc1ccc(C(=O)N[C@@H](CCC(=O)O)C(=O)O)cc1)N2C=O [Levoleucovorin (Calcium)]	0	–
O=C(O)[C@H]1CCCCN1 [D-Pipecolinic acid]	-1.3	–
O=c1ccn([C@H]2C[C@H](O)[C@@H](CO)O2)c(=O)[nH]1 [2'-Deoxyuridine]	1.5	–
Nc1ccc(-c2ccccc2)cn1 [2-Amino-5-phenylpyridine]	0.8	–
COc1ccc2c(c1OC)O[C@H]1c3ccc(O)cc3OC[C@@H]21 [Methylnissolin]	0.4	–
O=c1cc(-c2ccc(O)cc2)oc2cc(O[C@@H]3O[C@H](CO)[C@@H](O)[C@H](O)[C@H]3O)cc(O)c12 [Apigenin 7-glucoside]	6.5	–
C[C@@H]1O[C@@H](O[C@H]2[C@H](O[C@H]3CC[C@@]4(C)[C@@H](CC[C@]5(C)[C@@H]4CC=C4[C@@H]6CC(C)(C)CC[C@]6(C(=O)O[C@@H]6O[C@H](CO[C@@H]7O[C@H](CO)[C@@H](O)[C@H](O)[C@H]7O)[C@@H](O)[C@H](O)[C@H]6O)CC[C@]45C)[C@]3(C)CO)OC[C@H](O)[C@@H]2O)[C@H](O)[C@H](O)[C@H]1O [Dipsacoside B]	0.7	–
C[C@H](CCC(=O)NCC(=O)O)[C@H]1CC[C@H]2[C@@H]3[C@H](O)C[C@@H]4C[C@H](O)CC[C@]4(C)[C@H]3CC[C@]12C [Glycochenodeoxycholic acid (sodium salt)]	–	4.8
Cc1nnc(SCC2=C(C(=O)O)N3C(=O)[C@@H](NC(=O)Cn4cc(Cl)c(=O)c(Cl)c4)[C@H]3SC2)s1 [Cefazedone]	0.1	–
C[C@@H]1O[C@@H](OC[C@H]2O[C@@H](Oc3cc(O)c4c(c3)O[C@H](c3ccc(O)c(O)c3)CC4=O)[C@H](O)[C@@H](O)[C@@H]2O)[C@H](O)[C@H](O)[C@H]1O [Eriocitrin]	0	–
C[C@]12CCC(=O)C=C1C=C[C@@H]1[C@@H]2CC[C@@]2(C)[C@H]1CC[C@@]21CCC(=O)O1 [Canrenone]	-0.1	–

Part of the list above, bar-delimited.
SMILES | OC43 Inhibition rate [%] | OC43 Inhibition rate (OC43 Inhibition rate, 24 h) [%]
C[C@@H]1O[C@@H](O[C@H]2[C@H](O[C@H]3CC[C@@]4(C)[C@@H](CC[C@]5(C)[C@@H]4CC=C4[C@@H]6CC(C)(C)CC[C@]6(C(=O)O[C@@H]6O[C@H](CO[C@@H]7O[C@H](CO)[C@@H](O)[C@H](O)[C@H]7O)[C@@H](O)[C@H](O)[C@H]6O)CC[C@]45C)[C@]3(C)CO)OC[C@H](O)[C@@H]2O)[C@H](O)[C@H](O)[C@H]1O [Dipsacoside B] | 0.7 | –
C[C@H](CCC(=O)NCC(=O)O)[C@H]1CC[C@H]2[C@@H]3[C@H](O)C[C@@H]4C[C@H](O)CC[C@]4(C)[C@H]3CC[C@]12C [Glycochenodeoxycholic acid (sodium salt)] | – | 4.8
